The list shows a part of the results, in another mix than the full data. For some assays here: At the low end of the ranking the order means little. The list shows a part of the results. For some assays here: The source does not settle which construct or isoform was used.

One assay addresses T1, ETS1 (UniProt P14921).
T1 sequence: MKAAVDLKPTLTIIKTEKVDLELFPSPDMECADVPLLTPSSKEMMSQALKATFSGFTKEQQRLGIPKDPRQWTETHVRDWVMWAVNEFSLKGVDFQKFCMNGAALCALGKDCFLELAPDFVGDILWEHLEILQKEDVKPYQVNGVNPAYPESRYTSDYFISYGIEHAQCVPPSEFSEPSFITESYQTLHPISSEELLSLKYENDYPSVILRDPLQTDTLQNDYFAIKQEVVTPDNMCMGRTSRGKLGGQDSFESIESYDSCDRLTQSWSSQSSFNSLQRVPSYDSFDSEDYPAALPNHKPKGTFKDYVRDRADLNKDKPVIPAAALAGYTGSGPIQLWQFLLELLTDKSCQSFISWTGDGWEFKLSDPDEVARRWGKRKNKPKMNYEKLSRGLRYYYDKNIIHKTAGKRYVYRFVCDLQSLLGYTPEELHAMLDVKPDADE
Briefly: DAPPL (digital affinity profiling via proximity ligation, sequencing). As to conditions: 10 mM Tris-HCl pH 7.5, 50 mM NaCl, 1 mM DTT, 4% glycerol, room temperature, 30 min; GST-TFs on glutathione beads, 16-mer random dsDNA library, 0.1% …; high values mean tight binding; double strand, one strand shown; scale: fold enrichment (6-mer frequency, TF over GST control).
ATAATC gave a binding signal of 1.15.
The same measure, in the same setting: as for CACTCC, the figure is 1.26.
Consider TGCGAA, for which the binding signal is 1.06.
On to AGGCTT, for which the binding signal came to 1.04.
For TCAATC, the binding signal worked out at 1.04.
Same read-out and setting: for ATATAG the value was 1.25; for GTATGG, 1.07; for AGATGT, 0.984.
Same read-out and setting: for CACTAG the value was 0.944.
CTCGTT showed a binding signal of 1.38.
For TCGAGT, the binding signal came out at 0.94.
The same measure, in the same setting: for ATGTGC the value was 1.07.
The sequence ACTATA had a binding signal of 1.34.
Same read-out and setting: as for ATGCGA, the figure is 1.24.
Still for that read-out and setting: for AGTAGC the value was 0.982; for GCCGCC, 0.963; for TTGGGG, 1.2.
The sequence TGAGCT returned a binding signal of 1.
On the same count and under the same terms, as for AAGGGT, the figure is 1.02; as for CATCAT, 1.01; as for AGCAAT, 1.05.
Same read-out and setting: as for TAAGCA, the figure is 1.01.
CGAACC displayed a binding signal of 1.25.
On the same count and under the same terms, as for ATTCTT, the figure is 1.47.
AAGCCC: the binding signal came out at 1.14.
The sequence GCGATA gave a binding signal of 1.1.
For CTCTCG, the binding signal turned out to be 1.39.
Still for that read-out and setting: as for TGATAA, the figure is 0.987; as for TTACGG, 1.29.
Take CCCTTC: the binding signal turned out to be 1.4.
Still for that read-out and setting: for ACCCCC the value was 1.1; for CGGATC, 0.965.
CACGAT gave a binding signal of 1.33.
On the same count and under the same terms, as for AACTTG, the figure is 1.21; as for TGCCCC, 1.25; as for ACCATT, 1.07.
Same read-out and setting: for ACGCTC the value was 0.992; for CGAATG, 1.02; for ATAACG, 0.935.
TTTATC yielded a binding signal of 1.29.

The next assay deals with T2, SPDEF (UniProt O95238).
T2 sequence: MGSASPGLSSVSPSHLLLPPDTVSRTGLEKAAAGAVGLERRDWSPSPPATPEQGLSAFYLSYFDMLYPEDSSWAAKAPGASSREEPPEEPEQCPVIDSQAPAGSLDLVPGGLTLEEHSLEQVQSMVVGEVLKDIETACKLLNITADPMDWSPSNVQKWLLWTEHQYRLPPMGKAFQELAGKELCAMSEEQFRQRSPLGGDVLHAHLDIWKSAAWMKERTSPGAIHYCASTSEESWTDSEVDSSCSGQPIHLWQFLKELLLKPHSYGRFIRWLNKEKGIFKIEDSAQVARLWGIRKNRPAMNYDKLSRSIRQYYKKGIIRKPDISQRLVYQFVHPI
Described as above. As to conditions: 10 mM Tris-HCl pH 7.5, 50 mM NaCl, 1 mM DTT, 4% glycerol, room temperature, 30 min; GST-TFs on glutathione beads, 16-mer random dsDNA library, 0.1% …; high values mean tight binding; double strand, one strand shown; scale: fold enrichment (6-mer frequency, TF over GST control).
ATAATC gave a binding signal of 1.17.
In turn, CACTCC showed a binding signal of 1.2.
Regarding TGCGAA, the binding signal turned out to be 1.2.
Still for that read-out and setting: for AGGCTT the value was 0.953.
Still for that read-out and setting: as for TCAATC, the figure is 0.923.
Same read-out and setting: as for ATATAG, the figure is 1.14; as for GTATGG, 0.938.
For the sequence AGATGT, the binding signal was found to be 0.817.
The sequence CACTAG returned a binding signal of 0.973.
CTCGTT had a binding signal of 1.27.
On the same count and under the same terms, as for TCGAGT, the figure is 0.882; as for ATGTGC, 1.23; as for ACTATA, 1.42.
ATGCGA displayed a binding signal of 1.18.
Turning to AGTAGC, the binding signal came out at 0.904.
On the same count and under the same terms, as for GCCGCC, the figure is 0.943.
Same read-out and setting: as for TTGGGG, the figure is 1.17.
On the same count and under the same terms, for TGAGCT the value was 0.99; for AAGGGT, 0.923; for CATCAT, 0.94.
For AGCAAT, the binding signal is 1.04.
The same measure, in the same setting: for TAAGCA the value was 1.06; for CGAACC, 1.23.
For the sequence ATTCTT, the binding signal was determined as 1.34.
The same measure, in the same setting: as for AAGCCC, the figure is 0.966; as for GCGATA, 0.97.
The same measure, in the same setting: as for CTCTCG, the figure is 1.16.
The same measure, in the same setting: as for TGATAA, the figure is 0.976; as for TTACGG, 1.32.
Take CCCTTC: the binding signal worked out at 1.38.
Still for that read-out and setting: for ACCCCC the value was 1.1; for CGGATC, 1.67.
On the same count and under the same terms, for CACGAT the value was 1.26; for AACTTG, 1.14.
Still for that read-out and setting: for TGCCCC the value was 1.21; for ACCATT, 1; for ACGCTC, 0.885.
CGAATG came in with a binding signal of 0.992.
As to ATAACG, the binding signal was 0.967.
Still for that read-out and setting: for TTTATC the value was 1.25.

The values above are taken from article PMC7862700.
